# Experimental data taken from publication PMC7862700.
# Protein sequences, listed by entry. Tags and fused reporters are not part of them. Lines headed by an entry give the natural chain unless they say otherwise; changes in a name come on top.
# UniProt P32519: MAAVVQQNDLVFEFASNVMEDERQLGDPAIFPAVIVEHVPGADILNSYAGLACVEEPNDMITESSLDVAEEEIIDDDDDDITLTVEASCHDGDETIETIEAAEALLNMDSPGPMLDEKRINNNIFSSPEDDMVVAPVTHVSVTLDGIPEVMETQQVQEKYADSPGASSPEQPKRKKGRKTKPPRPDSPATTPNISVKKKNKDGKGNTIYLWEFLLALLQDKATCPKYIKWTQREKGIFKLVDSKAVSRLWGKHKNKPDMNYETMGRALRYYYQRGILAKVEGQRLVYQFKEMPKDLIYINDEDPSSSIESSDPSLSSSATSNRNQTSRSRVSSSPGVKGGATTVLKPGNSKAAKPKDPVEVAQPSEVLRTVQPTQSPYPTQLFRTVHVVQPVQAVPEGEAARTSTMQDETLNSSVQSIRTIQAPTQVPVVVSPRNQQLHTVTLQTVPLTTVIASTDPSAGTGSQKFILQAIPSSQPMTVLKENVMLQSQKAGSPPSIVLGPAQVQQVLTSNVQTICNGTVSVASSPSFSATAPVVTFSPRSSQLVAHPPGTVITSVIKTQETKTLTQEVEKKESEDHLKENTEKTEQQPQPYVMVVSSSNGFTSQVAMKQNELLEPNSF
# UniProt P50549: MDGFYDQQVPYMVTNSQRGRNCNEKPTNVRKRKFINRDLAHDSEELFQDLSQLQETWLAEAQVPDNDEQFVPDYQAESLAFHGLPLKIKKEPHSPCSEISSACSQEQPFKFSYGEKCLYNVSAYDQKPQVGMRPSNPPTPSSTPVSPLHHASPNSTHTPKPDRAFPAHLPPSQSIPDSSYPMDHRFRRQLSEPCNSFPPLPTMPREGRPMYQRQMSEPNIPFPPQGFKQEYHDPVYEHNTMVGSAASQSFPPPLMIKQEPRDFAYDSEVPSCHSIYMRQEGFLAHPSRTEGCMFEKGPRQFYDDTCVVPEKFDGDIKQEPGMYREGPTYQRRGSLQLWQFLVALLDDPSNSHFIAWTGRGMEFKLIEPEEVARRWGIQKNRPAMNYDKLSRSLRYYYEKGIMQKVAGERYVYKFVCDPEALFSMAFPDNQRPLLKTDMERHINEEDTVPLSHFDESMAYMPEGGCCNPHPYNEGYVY
# This is a selection; strong and weak results do not stand in their true shares. For some assays here: At the low end of the ranking the order means little. Some of the results follow. For some assays here: The source does not settle which construct or isoform was used.
# How the values were obtained:
# Test in all cases: DAPPL (digital affinity profiling via proximity ligation, sequencing)
# Conditions in all cases: 10 mM Tris-HCl pH 7.5, 50 mM NaCl, 1 mM DTT, 4% glycerol, room temperature, 30 min; GST-TFs on glutathione beads, 16-mer random dsDNA library, 0.1% …; high values mean tight binding; double strand, one strand shown; scale: fold enrichment (6-mer frequency, TF over GST control)
# [1] = target: ELF1 (UniProt P32519)
# [2] = target: T1, ELK4 (UniProt P28324-2)
# T1 sequence: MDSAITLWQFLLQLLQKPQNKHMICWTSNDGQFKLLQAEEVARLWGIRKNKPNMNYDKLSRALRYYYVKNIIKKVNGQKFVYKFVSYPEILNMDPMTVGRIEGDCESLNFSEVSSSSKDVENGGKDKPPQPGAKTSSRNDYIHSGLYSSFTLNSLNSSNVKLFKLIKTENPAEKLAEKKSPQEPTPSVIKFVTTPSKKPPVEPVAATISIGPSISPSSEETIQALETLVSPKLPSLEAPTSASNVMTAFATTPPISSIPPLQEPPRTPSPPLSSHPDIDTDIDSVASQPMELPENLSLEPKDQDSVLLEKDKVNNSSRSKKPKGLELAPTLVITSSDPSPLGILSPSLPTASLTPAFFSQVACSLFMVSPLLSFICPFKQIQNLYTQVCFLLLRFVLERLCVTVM
# [3] = target: T2, ETV4 (UniProt P43268)
# T2 sequence: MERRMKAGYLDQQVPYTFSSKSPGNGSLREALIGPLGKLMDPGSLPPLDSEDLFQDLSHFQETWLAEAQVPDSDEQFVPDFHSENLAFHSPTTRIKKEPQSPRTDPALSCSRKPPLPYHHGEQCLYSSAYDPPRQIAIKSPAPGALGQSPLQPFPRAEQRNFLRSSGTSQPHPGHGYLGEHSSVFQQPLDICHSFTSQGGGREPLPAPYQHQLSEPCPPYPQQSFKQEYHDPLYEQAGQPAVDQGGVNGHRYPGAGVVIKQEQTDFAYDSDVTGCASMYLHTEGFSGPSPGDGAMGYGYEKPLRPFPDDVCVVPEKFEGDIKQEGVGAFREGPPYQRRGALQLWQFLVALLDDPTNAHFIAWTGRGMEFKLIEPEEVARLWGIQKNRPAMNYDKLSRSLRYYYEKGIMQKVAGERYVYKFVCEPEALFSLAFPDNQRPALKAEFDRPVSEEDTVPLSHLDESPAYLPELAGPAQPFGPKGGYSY
# [4] = target: ETV1 (UniProt P50549)
# [5] = target: T3, ERF (UniProt P50548)
# T3 sequence: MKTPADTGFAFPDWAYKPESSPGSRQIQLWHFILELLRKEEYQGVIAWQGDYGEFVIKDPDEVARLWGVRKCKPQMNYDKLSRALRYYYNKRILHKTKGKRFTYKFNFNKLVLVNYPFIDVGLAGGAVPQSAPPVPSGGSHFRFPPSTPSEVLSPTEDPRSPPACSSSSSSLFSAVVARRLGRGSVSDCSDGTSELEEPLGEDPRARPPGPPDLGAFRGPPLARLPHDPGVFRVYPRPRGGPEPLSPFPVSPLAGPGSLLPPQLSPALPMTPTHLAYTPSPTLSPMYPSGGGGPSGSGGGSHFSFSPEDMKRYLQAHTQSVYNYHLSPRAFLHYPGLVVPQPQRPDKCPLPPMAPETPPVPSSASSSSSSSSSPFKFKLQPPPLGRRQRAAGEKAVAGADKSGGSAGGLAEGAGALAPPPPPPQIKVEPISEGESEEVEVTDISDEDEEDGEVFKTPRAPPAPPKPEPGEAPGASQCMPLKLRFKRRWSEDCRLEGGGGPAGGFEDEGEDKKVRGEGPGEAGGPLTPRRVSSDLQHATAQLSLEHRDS
# [6] = target: T4, ERG (UniProt P11308)
# T4 sequence: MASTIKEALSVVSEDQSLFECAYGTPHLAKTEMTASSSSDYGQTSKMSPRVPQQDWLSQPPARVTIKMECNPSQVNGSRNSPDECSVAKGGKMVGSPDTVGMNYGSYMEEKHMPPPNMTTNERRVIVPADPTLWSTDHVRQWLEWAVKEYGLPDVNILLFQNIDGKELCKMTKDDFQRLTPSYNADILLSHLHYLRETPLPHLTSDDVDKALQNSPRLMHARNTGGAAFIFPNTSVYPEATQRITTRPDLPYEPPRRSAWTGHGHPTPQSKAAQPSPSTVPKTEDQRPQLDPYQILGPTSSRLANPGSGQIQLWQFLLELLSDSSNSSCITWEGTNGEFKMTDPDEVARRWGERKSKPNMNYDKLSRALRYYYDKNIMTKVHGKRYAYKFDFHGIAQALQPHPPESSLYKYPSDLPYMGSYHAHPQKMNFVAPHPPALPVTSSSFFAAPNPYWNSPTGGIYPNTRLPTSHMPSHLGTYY
sequence,measurement,setting,value
TACACG,binding signal,[1],1.16
same,binding signal,[2],1.21
same,binding signal,[3],1.15
same,binding signal,[4],1.16
TACAAG,binding signal,[1],1.06
same,binding signal,[2],1.16
same,binding signal,[3],1.04
same,binding signal,[4],1.06
ATTTCC,binding signal,[2],3.35
same,binding signal,[3],3.91
same,binding signal,[5],3.64
CCATTT,binding signal,[1],1.27
same,binding signal,[2],1.41
same,binding signal,[3],1.35
ATACCA,binding signal,[1],1.06
same,binding signal,[2],0.992
same,binding signal,[3],1.03
CGGCTT,binding signal,[1],1.13
same,binding signal,[2],1.09
same,binding signal,[3],1.15
same,binding signal,[4],1.2
CCTGGG,binding signal,[2],1.08
same,binding signal,[3],1.38
same,binding signal,[5],0.976
TGCTCA,binding signal,[2],1.24
same,binding signal,[3],1.42
same,binding signal,[5],1.5
ACTGCT,binding signal,[2],1.54
same,binding signal,[3],1.39
same,binding signal,[5],1.27
AACGTT,binding signal,[2],1.02
same,binding signal,[3],1.14
same,binding signal,[5],0.966
TTGATA,binding signal,[2],1.42
same,binding signal,[3],1.23
same,binding signal,[5],1.24
AACTCG,binding signal,[2],1.29
same,binding signal,[3],1.34
same,binding signal,[5],1.44
GATGAC,binding signal,[2],1.42
same,binding signal,[3],1.63
same,binding signal,[5],1.45
TGCCGC,binding signal,[2],1.23
same,binding signal,[3],1.27
same,binding signal,[5],1.32
ACCTGC,binding signal,[1],1.54
same,binding signal,[2],1.59
same,binding signal,[3],1.55
same,binding signal,[4],1.57
AAACCA,binding signal,[1],1.18
same,binding signal,[2],1.26
same,binding signal,[3],1.19
same,binding signal,[5],1.16
TGCTCT,binding signal,[1],1.34
same,binding signal,[2],1.38
same,binding signal,[3],1.45
same,binding signal,[4],1.33
TAACAT,binding signal,[1],1.35
same,binding signal,[2],1.29
same,binding signal,[3],1.28
TAACGA,binding signal,[2],1.09
same,binding signal,[3],1.12
same,binding signal,[5],1.03
CCCCAT,binding signal,[1],1.31
same,binding signal,[2],1.22
same,binding signal,[3],1.36
CTTTAA,binding signal,[2],1.28
same,binding signal,[3],1.25
same,binding signal,[5],1.32
AAATTC,binding signal,[2],1.15
same,binding signal,[3],1.3
same,binding signal,[5],1.29
TCTTTG,binding signal,[1],1.25
same,binding signal,[2],1.2
same,binding signal,[3],1.15
same,binding signal,[4],1.1
TAACTC,binding signal,[1],1.29
same,binding signal,[2],1.34
same,binding signal,[3],1.19
same,binding signal,[5],1.29
TGGTAC,binding signal,[2],1.11
same,binding signal,[3],1.2
same,binding signal,[5],1.11
CTGCCA,binding signal,[1],1.23
same,binding signal,[2],1.33
same,binding signal,[3],1.16
TTTGCT,binding signal,[1],1.21
same,binding signal,[2],1.36
same,binding signal,[3],1.25
same,binding signal,[5],1.39
CATGAA,binding signal,[1],1.06
same,binding signal,[2],1.11
same,binding signal,[3],1.08
same,binding signal,[5],1.02
TCGATT,binding signal,[1],1.12
same,binding signal,[2],1.14
same,binding signal,[3],0.984
TTGCGG,binding signal,[3],1.35
TCTGGG,binding signal,[3],1.21
CTAATT,binding signal,[3],1.33
AATACA,binding signal,[3],1.38
CACATT,binding signal,[1],1.21
same,binding signal,[2],1.13
same,binding signal,[3],1.21
TGACAC,binding signal,[3],1.25
TACTCT,binding signal,[3],1.4
TACTGC,binding signal,[3],1.22
AAATGT,binding signal,[3],1.34
ACTCGC,binding signal,[3],1.27
TCTCTA,binding signal,[3],1.35
CATATA,binding signal,[3],1.07
GGGCCT,binding signal,[3],1.36
ATATTA,binding signal,[3],1.1
GTCTTC,binding signal,[3],1.33
TCCCGC,binding signal,[3],1.42
TAAAGT,binding signal,[1],1.18
same,binding signal,[2],1.27
same,binding signal,[3],1.16
TGACCT,binding signal,[3],1.8
TACTCG,binding signal,[3],1.3
TACCCG,binding signal,[3],1.38
TTTCCT,binding signal,[3],2.32
TACTTC,binding signal,[3],4.3
ACGCTG,binding signal,[3],1.18
TTCATC,binding signal,[3],1.25
TACTAA,binding signal,[3],1.26
TCTGAT,binding signal,[3],1.25
TTCAGC,binding signal,[3],1.23
TCTTGA,binding signal,[3],1.29
ATATGG,binding signal,[3],1.28
AGATCC,binding signal,[3],1.14
ATTGAC,binding signal,[1],1.19
same,binding signal,[2],1.34
same,binding signal,[3],1.18
ATGACG,binding signal,[1],1.34
same,binding signal,[2],1.47
same,binding signal,[3],1.4
CTGGAT,binding signal,[3],1.4
TTTCGA,binding signal,[3],1.4
TACGCC,binding signal,[3],1.2
TTTGCG,binding signal,[3],1.26
ACATCC,binding signal,[3],3.07
TTTTGT,binding signal,[3],1.3
TATTCT,binding signal,[3],1.27
TAACAC,binding signal,[3],1.18
GAATAC,binding signal,[6],0.985
same,binding signal,[3],1.03
CCCATG,binding signal,[6],1.19
same,binding signal,[3],1.1
TATCTA,binding signal,[6],1.18
same,binding signal,[3],1.2
ATGCTT,binding signal,[6],1.32
same,binding signal,[3],1.45
GTATAT,binding signal,[6],1.09
same,binding signal,[3],1.16

# Quoted at random: 2 entries already listed.
sequence,measurement,setting,value
ATACCA,binding signal,[2],0.992
CTTTAA,binding signal,[3],1.25

# Part of the list above, with tabs.
sequence	measurement	setting	value
TACACG	binding signal	[3]	1.15
same	binding signal	[4]	1.16
TACAAG	binding signal	[1]	1.06
same	binding signal	[2]	1.16
